The values that follow come from patent US20260315454A1, “Use of quinoline-4-carboxylic acid in the preparation of anti-aging product as well as product for protecting liver and promoting liver regeneration” (Guangzhou Riju Trade Development Co., Ltd., priority 2023, published 2026).

One data set has as its system GS iPSC. The experiment in a line: metabolomics of GS iPSC cells after freezing-rewarming. Also noted: species or system thirteen-lined ground squirrel. The note with it: endogenous metabolite.
The next data set has as its system hamster liver. The experiment in a line: metabolomics of hamster liver in cold storage-normothermic perfusion. Also noted: species or system golden hamsters. The note with it: endogenous metabolite.

`O=C(O)c1ccnc2ccccc12` [quinoline-4-carboxylic acid]: the “content of quinoline-4-carboxylic acid in metabolome during rewarming” value with GS iPSC (37° C. for 2 h after 4° C.) is listed as “decreases during rewarming”. Moreover, the “content of quinoline-4-carboxylic acid in metabolome during cold adaptation” value with GS iPSC (Hibernate-A medium, 4° C. for 4 h) was “increases during cold adaptation”. Also, in the data set on hamster liver (37° C. for 2 h after cold storage), the “content of quinoline-4-carboxylic acid in liver metabolome during normothermic perfusion” value is “decreases during normothermic perfusion”. Moreover, the “content of quinoline-4-carboxylic acid in liver metabolome during cold storage” value in the data set on hamster liver (UW solution, 4° C. for 48 h) is reported as “increases during cold storage”.
